The source of these data is patent publication US20220354890A1 (GUANGZHOU BIO GENE TECHNOLOGY, published 2022).

The target of this assay is T1, CLL1-Fc fusion protein (Acrobiosystems) (UniProt Q5QGZ9 65-265).
T1 construct: Bought reagent; not shown: Fc part, detected with FITC-labeled anti-human Fc
T1 sequence (looked up): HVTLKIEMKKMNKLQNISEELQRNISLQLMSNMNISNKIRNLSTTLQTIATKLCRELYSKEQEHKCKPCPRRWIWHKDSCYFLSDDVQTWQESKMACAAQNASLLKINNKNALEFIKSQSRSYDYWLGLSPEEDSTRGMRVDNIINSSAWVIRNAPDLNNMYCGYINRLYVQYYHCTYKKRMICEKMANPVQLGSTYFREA
In words: flow cytometry: CAR-T cells stained with CLL1-Fc fusion protein and FITC-labeled anti-human Fc; percent positive cells (T mock 1.23%). An excerpt:
Flow cytometry was used to detect the expression or CAR molecules on the surface of T cells, and the CLL1-Fc fusion protein (Acrobiosystems) was used to detect the expression of CAR. The secondary antibody was FITC-Labeled anti-human Fc, and T cell (T mock) not transfected with CAR was used as a negative control.
On the technique in general: Flow cytometry measures light scatter and fluorescence of single cells or particles in a stream.

B1: H27H4-CAR (other)
chain: DIQMTQSPSSLSASVGDRVTITCKSSQSLLYSDNQKNYLAWYQQKPGKAPKLLIYWASTRESGVPSRFSGSGSGTDFTLTISSLQPEDFATYYCQQYYTYPYTFGQGTKLEIKGGGGSGGGGSGGGGSEVQLVQSGAEVKKPGASVKVSCKASGYTFTGYHMHWVRQAPGQRLEWMGRINPYNGAASHNQKFKDRVTITRDTSASTAYMELSSLRSEDTAVYYCARGWDYDGGYYAMDYWGQGTLVTVSSTTTPAPRPPTPAPTIASQPLSLRPEACRPAAGGAVHTRGLDFACDIYIWAPLAGTCGVLLLSLVITLYCKRGRKKLLYIFKQPFMRPVQTTQEEDGCSCRFPEEEEGGCELRVKFSRSADAPAYQQGQNQLYNELNLGRREEYDVLDKRRGRDPEMGGKPRRKNPQEGLYNELQKDKMAEAYSEIGMKGERRRGKGHDGLYQGLSTATKDTYDALHMQALPPR
notes: also called humanized 27H4; H27H4-CAR-T (T cells carrying it)
In the case of B1, the “CAR Positive Rate” value was 33.6%.

B2: 27H4-CAR (other)
chain: DIVMSQSPSSLAVSVGEKVTMSCKSSQSLLYSDNQKNYLAWYQQKPGQSPKLLIYWASTRESGVPDRFTGSGSGTDFTLTISSVKAEDLAVYYCQQYYTYPYTFGGGTKLEIKGGGGSGGGGSGGGGSEVQLQQSGPELVKPGASVKISCKASGYSFTGYHMHWVKQSHVKSLEWIGRINPYNGAASHNQKFKDKATLTVDKSSSTAYMELHSLTSEDSAVYYCARGWDYDGGYYAMDYWGQGTSVTVSSTTTPAPRPPTPAPTIASQPLSLRPEACRPAAGGAVHTRGLDFACDIYIWAPLAGTCGVLLLSLVITLYCKRGRKKLLYIFKQPFMRPVQTTQEEDGCSCRFPEEEEGGCELRVKFSRSADAPAYQQGQNQLYNELNLGRREEYDVLDKRRGRDPEMGGKPRRKNPQEGLYNELQKDKMAEAYSEIGMKGERRRGKGHDGLYQGLSTATKDTYDALHMQALPPR
notes: also called 27H4-CAR-T (T cells carrying it); chimeric antigen receptor targeting CLL1 with Anti-CLL1 scFv (27H4)
Turning to B2, the “CAR Positive Rate” value came out at 39.4%.
